Reference: US9487570B2 (BETTA PHARMACEUTICALS CO., LTD, priority 2010, dated 2016)

Assay: general procedure: Fmoc solid-phase peptide synthesis; Rink Amide MBHA; symmetric anhydrides / preformed HOBt esters (Boc); HBTU with NMM (Fmoc)
Conditions: whole synthesis, RP-HPLC mass spectrometry (Hewlett Packard LCMS-1100, diode array detector, ESI), scale 100 μmole

[Q-linker-d8, Glu22]GLP-1-(7-37)-peptide
final HPLC purity: >95%
